In assay [1] the target is T1, SNW1 (SNW domain containing 1) (human (endogenous in HPMEC-Im)) (UniProt Q13573).
T1 sequence: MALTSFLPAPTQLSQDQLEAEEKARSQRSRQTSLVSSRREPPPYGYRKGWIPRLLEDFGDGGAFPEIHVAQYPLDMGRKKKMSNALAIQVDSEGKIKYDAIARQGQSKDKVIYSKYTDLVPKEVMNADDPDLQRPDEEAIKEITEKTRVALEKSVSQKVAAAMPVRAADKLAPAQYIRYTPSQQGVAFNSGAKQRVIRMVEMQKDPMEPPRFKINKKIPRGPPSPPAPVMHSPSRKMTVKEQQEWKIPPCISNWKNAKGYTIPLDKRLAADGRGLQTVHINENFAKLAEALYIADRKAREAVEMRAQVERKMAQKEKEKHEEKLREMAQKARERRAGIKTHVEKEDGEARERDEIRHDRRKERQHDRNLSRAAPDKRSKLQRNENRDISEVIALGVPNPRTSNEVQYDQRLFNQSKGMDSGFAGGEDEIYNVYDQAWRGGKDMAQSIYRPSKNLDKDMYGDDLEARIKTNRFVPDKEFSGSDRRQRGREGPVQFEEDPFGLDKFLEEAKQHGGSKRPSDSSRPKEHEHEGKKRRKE
Nature of the assay: co-IP; IP with SNW1 antibody on protein A/G magnetic beads from 500 ug HPMEC-Im lysate, blotted for NICD; cells with sc shRNA or HDAC6 shRNA, with or without VEGF 50 ng/mL (45 min in the legend, 60 min in the methods).

The target in assay [2] is Notch intracellular domain (NICD) (human (endogenous in HPMEC-Im)). Nature of the assay: co-IP; IP with NICD antibody on protein A/G magnetic beads from 500 ug HPMEC-Im lysate, blotted for HDAC6 or SNW1; cells with sc shRNA or HDAC6 shRNA, with or without VEGF 50 ng/mL (45 min in the legend, 60 min in the methods).

Results are given in words; binding and its absence hold for the method and conditions named. Binding seen in cells or lysates may run through a third protein. Binding can be weak; no strength is given.

For the molecule “Notch intracellular domain (NICD) (human (endogenous in HPMEC-Im)) (domain or fragment)”, in assay [1], the binding result is recorded as “binds”.

B1: SNW1 (SNW domain containing 1) (protein, UniProt Q13573 1-536)
chain: T1 sequence
With B1, the binding result in assay [2] was “binds”.

(Values after paper PMC10526732.)
